Results are given in words; binding and its absence hold for the method and conditions named. In cells and extracts the contact can be indirect. A yes stands for co-enrichment or nearness to the bait. Other partners may have been found. For some of these results: Where a sequence is shown, tags or fusion partners need not be part of it.
Experiments:
MLF2-APEX2-HA = biological target: T1, MLF2-APEX2-HA (UniProt Q15773); assay: proximity labelling
T1 sequence: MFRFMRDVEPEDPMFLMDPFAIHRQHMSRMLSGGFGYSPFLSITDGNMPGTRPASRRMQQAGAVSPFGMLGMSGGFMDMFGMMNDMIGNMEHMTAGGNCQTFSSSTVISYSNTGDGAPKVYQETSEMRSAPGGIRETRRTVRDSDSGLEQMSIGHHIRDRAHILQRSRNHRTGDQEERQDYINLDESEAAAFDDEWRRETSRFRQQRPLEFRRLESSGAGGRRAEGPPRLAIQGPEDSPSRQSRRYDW

[1] = biological target: Δ133 ORF10-HA (Kaposi's sarcoma-associated herpesvirus (KSHV)); assay: affinity purification with mass spectrometry

GP210 (from UniProt Q8TEM1 27-1887)
binding (MLF2-APEX2-HA): binds

HSC70 (from UniProt P11142 1-646)
binding (MLF2-APEX2-HA): binds

HSPA1A (from UniProt P0DMV8 1-641)
binding (MLF2-APEX2-HA): binds

Nup98 (from UniProt P52948 1-880)
binding (MLF2-APEX2-HA): binds

B1: Nup133 (protein, UniProt Q8WUM0 1-1156)
chain: MFPAAPSPRTPGTGSRRGPLAGLGPGSTPRTASRKGLPLGSAVSSPVLFSPVGRRSSLSSRGTPTRMFPHHSITESVNYDVKTFGSSLPVKVMEALTLAEVDDQLTINIDEGGWACLVCKEKLIIWKIALSPITKLSVCKELQLPPSDFHWSADLVALSYSSPSGEAHSTQAVAVMVATREGSIRYWPSLAGEDTYTEAFVDSGGDKTYSFLTAVQGGSFILSSSGSQLIRLIPESSGKIHQHILPQGQGMLSGIGRKVSSLFGILSPSSDLTLSSVLWDRERSSFYSLTSSNISKWELDDSSEKHAYSWDINRALKENITDAIWGSESNYEAIKEGVNIRYLDLKQNCDGLVILAAAWHSADNPCLIYYSLITIEDNGCQMSDAVTVEVTQYNPPFQSEDLILCQLTVPNFSNQTAYLYNESAVYVCSTGTGKFSLPQEKIVFNAQGDSVLGAGACGGVPIIFSRNSGLVSITSRENVSILAEDLEGSLASSVAGPNSESMIFETTTKNETIAQEDKIKLLKAAFLQYCRKDLGHAQMVVDELFSSHSDLDSDSELDRAVTQISVDLMDDYPASDPRWAESVPEEAPGFSNTSLIILHQLEDKMKAHSFLMDFIHQVGLFGRLGSFPVRGTPMATRLLLCEHAEKLSAAIVLKNHHSRLSDLVNTAILIALNKREYEIPSNLTPADVFFREVSQVDTICECLLEHEEQVLRDAPMDSIEWAEVVINVNNILKDMLQAASHYRQNRNSLYRREESLEKEPEYVPWTATSGPGGIRTVIIRQHEIVLKVAYPQADSNLRNIVTEQLVALIDCFLDGYVSQLKSVDKSSNRERYDNLEMEYLQKRSDLLSPLLSLGQYLWAASLAEKYCDFDILVQMCEQTDNQSRLQRYMTQFADQNFSDFLFRWYLEKGKRGKLLSQPISQHGQLANFLQAHEHLSWLHEINSQELEKAHATLLGLANMETRYFAKKKTLLGLSKLAALASDFSEDMLQEKIEEMAEQERFLLHQETLPEQLLAEKQLNLSAMPVLTAPQLIGLYICEENRRANEYDFKKALDLLEYIDEEEDININDLKLEILCKALQRDNWSSSDGKDDPIEVSKDSIFVKILQKLLKDGIQLSEYLPEVKDLLQADQLGSLKSNPYFEFVLKANYEYYVQGQI
binding (MLF2-APEX2-HA): binds

B2: myeloid leukemia factor 2 (MLF2) (protein, UniProt Q15773 1-248)
chain: MFRFMRDVEPEDPMFLMDPFAIHRQHMSRMLSGGFGYSPFLSITDGNMPGTRPASRRMQQAGAVSPFGMLGMSGGFMDMFGMMNDMIGNMEHMTAGGNCQTFSSSTVISYSNTGDGAPKVYQETSEMRSAPGGIRETRRTVRDSDSGLEQMSIGHHIRDRAHILQRSRNHRTGDQEERQDYINLDESEAAAFDDEWRRETSRFRQQRPLEFRRLESSGAGGRRAEGPPRLAIQGPEDSPSRQSRRYDW
binding [1]: binds

B3: Nup50 (protein, UniProt Q9UKX7 1-468)
chain: MAKRNAEKELTDRNWDQEDEAEEVGTFSMASEEVLKNRAIKKAKRRNVGFESDTGGAFKGFKGLVVPSGGGRFSGFGSGAGGKPLEGLSNGNNITSAPPFASAKAAADPKVAFGSLAANGPTTLVDKVSNPKTNGDSQQPSSSGLASSKACVGNAYHKQLAALNCSVRDWIVKHVNTNPLCDLTPIFKDYEKYLANIEQQHGNSGRNSESESNKVAAETQSPSLFGSTKLQQESTFLFHGNKTEDTPDKKMEVASEKKTDPSSLGATSASFNFGKKVDSSVLGSLSSVPLTGFSFSPGNSSLFGKDTTQSKPVSSPFPTKPLEGQAEGDSGECKGGDEEENDEPPKVVVTEVKEEDAFYSKKCKLFYKKDNEFKEKGIGTLHLKPTANQKTQLLVRADTNLGNILLNVLIPPNMPCTRTGKNNVLIVCVPNPPIDEKNATMPVTMLIRVKTSEDADELHKILLEKKDA
binding (MLF2-APEX2-HA): binds
